The source of these data is publication PMC11442470.

Chains of the proteins cited; added tags and fusions are not shown. Residues count along the entry.
UniProt O94925, residues 55-669: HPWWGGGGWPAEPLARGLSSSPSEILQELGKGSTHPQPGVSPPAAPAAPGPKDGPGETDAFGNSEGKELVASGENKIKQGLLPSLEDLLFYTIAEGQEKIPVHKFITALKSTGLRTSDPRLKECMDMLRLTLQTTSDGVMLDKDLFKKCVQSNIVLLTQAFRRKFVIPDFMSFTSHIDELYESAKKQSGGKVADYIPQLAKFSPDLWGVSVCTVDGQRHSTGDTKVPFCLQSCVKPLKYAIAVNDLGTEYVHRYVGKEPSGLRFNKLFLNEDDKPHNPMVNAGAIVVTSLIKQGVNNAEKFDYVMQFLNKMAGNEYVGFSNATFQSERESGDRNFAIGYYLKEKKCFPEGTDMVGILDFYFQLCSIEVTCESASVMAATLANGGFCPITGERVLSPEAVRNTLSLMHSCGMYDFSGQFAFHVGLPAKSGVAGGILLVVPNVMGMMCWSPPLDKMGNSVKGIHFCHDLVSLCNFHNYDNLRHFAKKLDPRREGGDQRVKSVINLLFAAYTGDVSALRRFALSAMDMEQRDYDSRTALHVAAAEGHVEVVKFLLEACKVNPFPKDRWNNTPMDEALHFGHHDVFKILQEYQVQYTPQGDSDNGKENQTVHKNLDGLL
UniProt D3Z7P3, residues 55-674: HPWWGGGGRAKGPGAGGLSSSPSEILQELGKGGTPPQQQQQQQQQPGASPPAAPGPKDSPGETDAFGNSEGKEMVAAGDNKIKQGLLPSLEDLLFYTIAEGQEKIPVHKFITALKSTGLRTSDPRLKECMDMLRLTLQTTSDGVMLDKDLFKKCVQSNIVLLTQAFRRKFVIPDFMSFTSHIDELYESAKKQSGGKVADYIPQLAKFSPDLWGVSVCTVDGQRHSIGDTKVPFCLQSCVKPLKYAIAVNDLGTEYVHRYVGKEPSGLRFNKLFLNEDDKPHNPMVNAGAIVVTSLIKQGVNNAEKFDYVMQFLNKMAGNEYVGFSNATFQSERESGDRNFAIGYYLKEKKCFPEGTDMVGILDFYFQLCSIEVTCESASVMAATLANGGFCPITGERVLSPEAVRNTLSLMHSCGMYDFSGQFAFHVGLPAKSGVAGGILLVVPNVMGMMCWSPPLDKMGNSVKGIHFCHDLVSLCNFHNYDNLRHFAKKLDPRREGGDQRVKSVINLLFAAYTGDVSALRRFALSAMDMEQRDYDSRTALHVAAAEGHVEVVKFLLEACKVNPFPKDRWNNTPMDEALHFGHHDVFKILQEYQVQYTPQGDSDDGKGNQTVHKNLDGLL

No constants are given. Whether binding was seen depends on the method and setting. Binding seen in cells or lysates may run through a third protein. Some entries that bind do so weakly or less than the wild type. Sequences can lack the tags named with a protein.

Test [1] deals with GLS1 (KGA)-mCherry, stably expressed in MEFs (UniProt O94925). The experiment in a line: FRET or BRET; FRET-FLIM in living MEFs stably expressing GFP-PDZD8 (donor) and GLS1 (KGA)-mCherry; fluorescence lifetime of GFP, 37 °C; cells unstarved or glucose-starved for 2 h.
The target of test [2] is glutaminase 1 (GLS1; both KGA and GAC), endogenous in MEFs (mouse (endogenous in MEFs)) (UniProt D3Z7P3). The experiment in a line: proximity ligation; Duolink PLA in fixed MEFs expressing HA-tagged PDZD8 or its mutant, mouse anti-HA and rabbit anti-GLS1; cells unstarved or glucose-starved for 2 h; WT, AMPKα-/- and PDZD8-/- MEFs.
Test [3] shares this target. The experiment in a line: co-IP; endogenous GLS1 (KGA and GAC) immunoprecipitated from MEF lysates in DDM/CHS lysis buffer (20 mM HEPES pH 7.4, 50 mM NaCl, 10 mM MgCl2, 0.5% DDM, 0.1% CHS), blot for co-precipitated PDZD8; cells unstarved or glucose-starved for 2 h; WT, AMPKα-/- and PDZD8-/- MEFs, the last with WT PDZD8 or PDZD8-T527A re-introduced.

B1: GFP-PDZD8, stably expressed in MEFs (protein, UniProt Q8NEN9 1-1154)
chain: MGLLLMILASAVLGSFLTLLAQFFLLYRRQPEPPADEAARAGEGFRYIKPVPGLLLREYLYGGGRDEEPSGAAPEGGATPTAAPETPAPPTRETCYFLNATILFLFRELRDTALTRRWVTKKIKVEFEELLQTKTAGRLLEGLSLRDVFLGETVPFIKTIRLVRPVVPSATGEPDGPEGEALPAACPEELAFEAEVEYNGGFHLAIDVDLVFGKSAYLFVKLSRVVGRLRLVFTRVPFTHWFFSFVEDPLIDFEVRSQFEGRPMPQLTSIIVNQLKKIIKRKHTLPNYKIRFKPFFPYQTLQGFEEDEEHIHIQQWALTEGRLKVTLLECSRLLIFGSYDREANVHCTLELSSSVWEEKQRSSIKTVELIKGNLQSVGLTLRLVQSTDGYAGHVIIETVAPNSPAAIADLQRGDRLIAIGGVKITSTLQVLKLIKQAGDRVLVYYERPVGQSNQGAVLQDNFGQLEENFLSSSCQSGYEEEAAGLTVDTESRELDSEFEDLASDVRAQNEFKDEAQSLSHSPKRVPTTLSIKPLGAISPVLNRKLAVGSHPLPPKIQSKDGNKPPPLKTSEITDPAQVSKPTQGSAFKPPVPPRPQAKVPLPSADAPNQAEPDVLVEKPEKVVPPPLVDKSAEKQAKNVDAIDDAAAPKQFLAKQEVAKDVTSETSCPTKDSSDDRQTWESSEILYRNKLGKWTRTRASCLFDIEACHRYLNIALWCRDPFKLGGLICLGHVSLKLEDVALGCLATSNTEYLSKLRLEAPSPKAIVTRTALRNLSMQKGFNDKFCYGDITIHFKYLKEGESDHHVVTNVEKEKEPHLVEEVSVLPKEEQFVGQMGLTENKHSFQDTQFQNPTWCDYCKKKVWTKAASQCMFCAYVCHKKCQEKCLAETSVCGATDRRIDRTLKNLRLEGQETLLGLPPRVDAEASKSVNKTTGLTRHIINTSSRLLNLRQVSKTRLSEPGTDLVEPSPKHTPNTSDNEGSDTEVCGPNSPSKRGNSTGIKLVRKEGGLDDSVFIAVKEIGRDLYRGLPTEERIQKLEFMLDKLQNEIDQELEHNNSLVREEKETTDTRKKSLLSAALAKSGERLQALTLLMIHYRAGIEDIETLESLSLDQHSKKISKYTDDTEEDLDNEISQLIDSQPFSSISDDLFGPSESV
For B1, the binding entry in test [1] is recorded as “binds”.

B2: HA-tagged PDZD8-T527A, stably expressed in MEFs (protein, UniProt Q8NEN9 1-1154)
chain: MGLLLMILASAVLGSFLTLLAQFFLLYRRQPEPPADEAARAGEGFRYIKPVPGLLLREYLYGGGRDEEPSGAAPEGGATPTAAPETPAPPTRETCYFLNATILFLFRELRDTALTRRWVTKKIKVEFEELLQTKTAGRLLEGLSLRDVFLGETVPFIKTIRLVRPVVPSATGEPDGPEGEALPAACPEELAFEAEVEYNGGFHLAIDVDLVFGKSAYLFVKLSRVVGRLRLVFTRVPFTHWFFSFVEDPLIDFEVRSQFEGRPMPQLTSIIVNQLKKIIKRKHTLPNYKIRFKPFFPYQTLQGFEEDEEHIHIQQWALTEGRLKVTLLECSRLLIFGSYDREANVHCTLELSSSVWEEKQRSSIKTVELIKGNLQSVGLTLRLVQSTDGYAGHVIIETVAPNSPAAIADLQRGDRLIAIGGVKITSTLQVLKLIKQAGDRVLVYYERPVGQSNQGAVLQDNFGQLEENFLSSSCQSGYEEEAAGLTVDTESRELDSEFEDLASDVRAQNEFKDEAQSLSHSPKRVPATLSIKPLGAISPVLNRKLAVGSHPLPPKIQSKDGNKPPPLKTSEITDPAQVSKPTQGSAFKPPVPPRPQAKVPLPSADAPNQAEPDVLVEKPEKVVPPPLVDKSAEKQAKNVDAIDDAAAPKQFLAKQEVAKDVTSETSCPTKDSSDDRQTWESSEILYRNKLGKWTRTRASCLFDIEACHRYLNIALWCRDPFKLGGLICLGHVSLKLEDVALGCLATSNTEYLSKLRLEAPSPKAIVTRTALRNLSMQKGFNDKFCYGDITIHFKYLKEGESDHHVVTNVEKEKEPHLVEEVSVLPKEEQFVGQMGLTENKHSFQDTQFQNPTWCDYCKKKVWTKAASQCMFCAYVCHKKCQEKCLAETSVCGATDRRIDRTLKNLRLEGQETLLGLPPRVDAEASKSVNKTTGLTRHIINTSSRLLNLRQVSKTRLSEPGTDLVEPSPKHTPNTSDNEGSDTEVCGPNSPSKRGNSTGIKLVRKEGGLDDSVFIAVKEIGRDLYRGLPTEERIQKLEFMLDKLQNEIDQELEHNNSLVREEKETTDTRKKSLLSAALAKSGERLQALTLLMIHYRAGIEDIETLESLSLDQHSKKISKYTDDTEEDLDNEISQLIDSQPFSSISDDLFGPSESV
In the case of B2, the binding entry in test [2] and in test [3] was “binds” throughout.
